Test results from the supplement of paper PMC10849652.
This is one part of the list.

Sequences of proteins named here, by UniProt entry; tags and fusion partners are left off. A change or cut given only in a name is not applied to a line headed by its entry.
UniProt Q8IXW5, whole entry, looked up: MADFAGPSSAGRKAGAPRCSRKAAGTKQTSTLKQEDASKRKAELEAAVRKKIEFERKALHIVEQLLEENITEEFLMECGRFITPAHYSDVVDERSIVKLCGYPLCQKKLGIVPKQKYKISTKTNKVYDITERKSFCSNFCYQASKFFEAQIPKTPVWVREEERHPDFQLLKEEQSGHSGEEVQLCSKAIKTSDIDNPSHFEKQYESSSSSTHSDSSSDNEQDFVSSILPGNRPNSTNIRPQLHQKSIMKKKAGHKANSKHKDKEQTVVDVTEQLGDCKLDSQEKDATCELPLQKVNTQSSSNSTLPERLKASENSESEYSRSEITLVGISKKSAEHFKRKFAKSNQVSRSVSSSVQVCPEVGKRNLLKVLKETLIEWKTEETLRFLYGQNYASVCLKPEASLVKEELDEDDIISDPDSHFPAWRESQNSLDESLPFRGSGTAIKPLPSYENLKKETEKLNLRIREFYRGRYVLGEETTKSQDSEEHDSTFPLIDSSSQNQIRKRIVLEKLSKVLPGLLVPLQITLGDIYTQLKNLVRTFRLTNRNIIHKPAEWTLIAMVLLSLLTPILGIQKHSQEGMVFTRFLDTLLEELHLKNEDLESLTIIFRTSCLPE
UniProt Q05823: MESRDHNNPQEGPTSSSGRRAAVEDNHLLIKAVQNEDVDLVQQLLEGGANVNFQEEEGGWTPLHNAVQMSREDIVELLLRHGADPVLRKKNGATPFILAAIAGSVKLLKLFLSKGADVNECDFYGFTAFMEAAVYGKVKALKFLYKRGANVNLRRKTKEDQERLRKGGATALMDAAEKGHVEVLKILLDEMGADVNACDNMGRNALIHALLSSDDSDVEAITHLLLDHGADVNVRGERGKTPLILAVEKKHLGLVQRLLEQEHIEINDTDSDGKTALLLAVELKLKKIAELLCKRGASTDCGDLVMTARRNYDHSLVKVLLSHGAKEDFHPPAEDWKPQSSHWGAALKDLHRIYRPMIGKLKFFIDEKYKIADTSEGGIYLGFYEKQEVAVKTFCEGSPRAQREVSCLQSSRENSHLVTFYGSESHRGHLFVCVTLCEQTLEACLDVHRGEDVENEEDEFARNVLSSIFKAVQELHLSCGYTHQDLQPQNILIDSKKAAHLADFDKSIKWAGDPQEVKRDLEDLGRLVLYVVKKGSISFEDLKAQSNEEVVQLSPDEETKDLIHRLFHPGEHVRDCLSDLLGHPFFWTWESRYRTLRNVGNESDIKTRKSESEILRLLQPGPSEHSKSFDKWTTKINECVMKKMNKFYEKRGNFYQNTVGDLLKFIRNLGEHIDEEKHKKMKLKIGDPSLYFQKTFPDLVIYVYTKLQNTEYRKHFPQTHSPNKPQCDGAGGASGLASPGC
UniProt Q969K3: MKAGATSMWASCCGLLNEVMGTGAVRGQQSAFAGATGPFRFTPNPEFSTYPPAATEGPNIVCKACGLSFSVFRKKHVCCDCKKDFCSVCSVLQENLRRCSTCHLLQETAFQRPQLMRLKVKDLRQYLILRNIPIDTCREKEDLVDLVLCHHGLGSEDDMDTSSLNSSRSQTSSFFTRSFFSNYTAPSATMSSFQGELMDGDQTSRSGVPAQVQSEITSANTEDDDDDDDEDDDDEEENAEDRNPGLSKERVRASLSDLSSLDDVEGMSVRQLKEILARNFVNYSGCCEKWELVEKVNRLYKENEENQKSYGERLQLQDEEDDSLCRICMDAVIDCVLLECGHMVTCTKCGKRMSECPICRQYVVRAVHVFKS
UniProt Q96NA2: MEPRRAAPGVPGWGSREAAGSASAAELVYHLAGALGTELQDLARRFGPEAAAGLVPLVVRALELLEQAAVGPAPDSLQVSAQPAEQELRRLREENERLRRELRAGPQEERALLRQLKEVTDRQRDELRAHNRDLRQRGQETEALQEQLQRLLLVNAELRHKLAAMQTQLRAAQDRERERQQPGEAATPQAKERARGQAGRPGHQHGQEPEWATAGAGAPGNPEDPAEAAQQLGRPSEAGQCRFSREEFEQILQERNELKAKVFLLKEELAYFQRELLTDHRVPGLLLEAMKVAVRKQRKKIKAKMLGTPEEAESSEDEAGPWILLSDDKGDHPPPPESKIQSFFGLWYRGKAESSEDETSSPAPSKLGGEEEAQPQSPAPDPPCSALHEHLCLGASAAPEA
UniProt Q5TBB1: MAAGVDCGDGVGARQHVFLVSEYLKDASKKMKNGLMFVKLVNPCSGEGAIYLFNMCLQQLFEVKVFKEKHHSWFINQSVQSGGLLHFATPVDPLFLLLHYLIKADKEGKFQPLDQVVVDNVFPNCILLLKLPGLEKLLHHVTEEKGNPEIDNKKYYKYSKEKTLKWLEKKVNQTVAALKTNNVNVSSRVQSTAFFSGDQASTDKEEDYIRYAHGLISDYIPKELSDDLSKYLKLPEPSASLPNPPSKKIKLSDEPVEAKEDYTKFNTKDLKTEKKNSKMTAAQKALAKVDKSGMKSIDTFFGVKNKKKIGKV
UniProt Q8IXI2: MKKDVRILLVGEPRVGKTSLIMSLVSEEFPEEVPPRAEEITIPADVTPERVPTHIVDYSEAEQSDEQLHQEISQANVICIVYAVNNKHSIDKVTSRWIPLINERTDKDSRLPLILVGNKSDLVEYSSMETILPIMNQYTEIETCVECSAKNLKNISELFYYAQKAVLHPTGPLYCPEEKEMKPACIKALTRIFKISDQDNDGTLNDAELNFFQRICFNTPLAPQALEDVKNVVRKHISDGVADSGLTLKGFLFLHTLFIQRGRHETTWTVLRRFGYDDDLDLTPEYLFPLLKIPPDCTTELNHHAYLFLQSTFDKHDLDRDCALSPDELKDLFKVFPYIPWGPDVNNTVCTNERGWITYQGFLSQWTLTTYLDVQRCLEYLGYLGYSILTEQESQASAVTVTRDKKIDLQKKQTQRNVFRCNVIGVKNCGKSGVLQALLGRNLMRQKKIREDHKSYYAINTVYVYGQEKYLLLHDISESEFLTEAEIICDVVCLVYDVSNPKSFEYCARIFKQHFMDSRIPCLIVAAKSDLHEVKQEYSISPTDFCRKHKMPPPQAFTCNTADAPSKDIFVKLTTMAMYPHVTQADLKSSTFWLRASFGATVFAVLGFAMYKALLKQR
UniProt Q96EP0: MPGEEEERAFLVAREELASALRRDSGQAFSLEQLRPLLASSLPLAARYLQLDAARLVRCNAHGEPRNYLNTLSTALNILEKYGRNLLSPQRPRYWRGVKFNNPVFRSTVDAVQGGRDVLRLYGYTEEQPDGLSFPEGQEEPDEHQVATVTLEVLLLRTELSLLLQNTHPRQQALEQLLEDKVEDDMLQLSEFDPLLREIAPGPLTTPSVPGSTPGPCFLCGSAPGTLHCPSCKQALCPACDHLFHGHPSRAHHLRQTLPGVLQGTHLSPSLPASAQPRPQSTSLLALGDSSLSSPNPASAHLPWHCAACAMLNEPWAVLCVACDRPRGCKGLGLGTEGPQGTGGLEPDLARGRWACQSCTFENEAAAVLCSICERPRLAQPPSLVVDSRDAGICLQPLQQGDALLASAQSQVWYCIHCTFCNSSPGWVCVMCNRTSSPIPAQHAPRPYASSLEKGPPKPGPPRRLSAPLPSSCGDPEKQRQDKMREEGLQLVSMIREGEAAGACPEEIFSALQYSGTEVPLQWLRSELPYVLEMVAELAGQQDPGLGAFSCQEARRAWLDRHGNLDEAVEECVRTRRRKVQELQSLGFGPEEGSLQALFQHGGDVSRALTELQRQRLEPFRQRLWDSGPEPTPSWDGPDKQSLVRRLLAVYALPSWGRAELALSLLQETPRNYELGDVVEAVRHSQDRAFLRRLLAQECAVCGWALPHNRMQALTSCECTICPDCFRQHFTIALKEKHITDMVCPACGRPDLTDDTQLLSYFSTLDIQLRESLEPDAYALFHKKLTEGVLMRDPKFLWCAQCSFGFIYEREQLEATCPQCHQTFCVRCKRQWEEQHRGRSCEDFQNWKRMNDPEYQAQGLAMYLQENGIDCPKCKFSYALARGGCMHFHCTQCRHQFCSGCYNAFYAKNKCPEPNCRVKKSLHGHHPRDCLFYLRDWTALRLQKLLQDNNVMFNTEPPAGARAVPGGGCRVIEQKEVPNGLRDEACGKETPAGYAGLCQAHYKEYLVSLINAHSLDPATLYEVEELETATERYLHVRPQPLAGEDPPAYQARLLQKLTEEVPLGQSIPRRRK
UniProt Q9P0P0: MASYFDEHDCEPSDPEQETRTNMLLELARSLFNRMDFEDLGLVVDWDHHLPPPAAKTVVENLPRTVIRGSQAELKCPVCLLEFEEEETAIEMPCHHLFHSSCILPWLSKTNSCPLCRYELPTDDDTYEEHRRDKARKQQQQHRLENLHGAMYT
UniProt Q9UBF6, whole entry, looked up: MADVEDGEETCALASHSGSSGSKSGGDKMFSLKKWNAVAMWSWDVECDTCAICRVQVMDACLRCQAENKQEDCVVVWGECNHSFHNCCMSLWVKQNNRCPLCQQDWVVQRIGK
UniProt P52758: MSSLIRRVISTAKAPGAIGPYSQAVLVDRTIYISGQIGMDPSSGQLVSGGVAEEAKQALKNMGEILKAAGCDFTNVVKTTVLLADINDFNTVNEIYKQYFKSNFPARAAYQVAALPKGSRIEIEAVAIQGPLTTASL
UniProt Q9BVS4: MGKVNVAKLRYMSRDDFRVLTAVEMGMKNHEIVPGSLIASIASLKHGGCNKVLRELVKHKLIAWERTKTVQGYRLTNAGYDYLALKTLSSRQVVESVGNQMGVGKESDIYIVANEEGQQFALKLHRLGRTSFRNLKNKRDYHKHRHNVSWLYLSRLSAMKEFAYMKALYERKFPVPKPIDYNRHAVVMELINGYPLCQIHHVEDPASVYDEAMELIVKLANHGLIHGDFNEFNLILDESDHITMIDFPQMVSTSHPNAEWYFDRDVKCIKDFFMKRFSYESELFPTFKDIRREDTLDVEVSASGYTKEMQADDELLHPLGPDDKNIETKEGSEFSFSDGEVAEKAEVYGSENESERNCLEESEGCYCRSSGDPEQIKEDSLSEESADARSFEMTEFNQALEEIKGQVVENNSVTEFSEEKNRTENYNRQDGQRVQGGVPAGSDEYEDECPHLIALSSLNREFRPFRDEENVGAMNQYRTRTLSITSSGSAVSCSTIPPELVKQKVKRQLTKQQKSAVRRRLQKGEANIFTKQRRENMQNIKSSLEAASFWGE
UniProt Q9H9A7: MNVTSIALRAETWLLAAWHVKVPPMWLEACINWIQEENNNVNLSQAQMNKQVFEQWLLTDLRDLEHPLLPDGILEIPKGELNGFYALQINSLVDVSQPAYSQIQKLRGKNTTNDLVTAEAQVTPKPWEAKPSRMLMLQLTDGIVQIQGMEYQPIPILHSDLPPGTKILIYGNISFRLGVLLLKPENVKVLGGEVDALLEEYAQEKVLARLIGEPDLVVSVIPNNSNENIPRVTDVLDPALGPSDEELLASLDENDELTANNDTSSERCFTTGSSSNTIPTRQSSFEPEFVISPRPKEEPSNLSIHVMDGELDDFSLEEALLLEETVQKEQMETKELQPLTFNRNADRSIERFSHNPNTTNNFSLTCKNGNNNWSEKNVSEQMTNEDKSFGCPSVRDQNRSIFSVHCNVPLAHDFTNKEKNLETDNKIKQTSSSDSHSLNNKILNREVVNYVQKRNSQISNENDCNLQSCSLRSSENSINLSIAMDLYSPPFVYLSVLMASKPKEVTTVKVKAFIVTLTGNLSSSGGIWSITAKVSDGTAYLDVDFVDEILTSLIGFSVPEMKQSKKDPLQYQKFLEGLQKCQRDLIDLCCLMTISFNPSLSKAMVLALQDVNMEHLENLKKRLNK
UniProt Q9H871: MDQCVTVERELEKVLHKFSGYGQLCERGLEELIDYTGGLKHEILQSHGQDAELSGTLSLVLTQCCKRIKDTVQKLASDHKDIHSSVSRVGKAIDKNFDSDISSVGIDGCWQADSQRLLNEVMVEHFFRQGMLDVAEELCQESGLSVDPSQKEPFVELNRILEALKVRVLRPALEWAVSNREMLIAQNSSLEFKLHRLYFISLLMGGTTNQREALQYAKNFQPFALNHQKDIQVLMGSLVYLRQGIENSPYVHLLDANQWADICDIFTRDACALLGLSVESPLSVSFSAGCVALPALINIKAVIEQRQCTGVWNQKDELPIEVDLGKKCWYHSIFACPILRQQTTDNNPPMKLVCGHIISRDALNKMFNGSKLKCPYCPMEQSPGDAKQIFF
UniProt O43148, whole entry, looked up: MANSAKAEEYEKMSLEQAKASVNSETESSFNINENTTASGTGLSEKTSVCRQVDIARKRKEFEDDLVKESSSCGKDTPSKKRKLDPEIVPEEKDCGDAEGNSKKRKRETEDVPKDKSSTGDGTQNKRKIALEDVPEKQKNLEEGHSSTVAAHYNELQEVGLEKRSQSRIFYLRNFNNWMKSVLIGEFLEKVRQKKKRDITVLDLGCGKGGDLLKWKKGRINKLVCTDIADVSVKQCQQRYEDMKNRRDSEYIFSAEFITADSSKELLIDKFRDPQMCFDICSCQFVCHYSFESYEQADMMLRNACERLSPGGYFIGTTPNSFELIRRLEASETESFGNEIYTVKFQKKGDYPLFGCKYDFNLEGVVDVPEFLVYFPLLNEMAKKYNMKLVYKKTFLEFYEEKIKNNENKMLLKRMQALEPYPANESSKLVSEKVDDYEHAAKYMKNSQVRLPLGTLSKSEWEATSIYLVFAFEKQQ

Legend:
Test in all cases: log2 fold change, soluble protein after heating vs DMSO (PISA); higher = thermal stabilisation; K562 lysate, 10 uM; active = over 0.2 and 3.5 SD of the protein, either way, in both replicates (recomputed)
vemurafenib = compound: CCCS(=O)(=O)Nc1ccc(F)c(C(=O)c2c[nH]c3ncc(-c4ccc(Cl)cc4)cc23)c1F [vemurafenib]
How it was run: (§1)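 Values give the log-two fold change in thermal stability against solvent controls, from duplicates. Crude K562 extract at 1 mg/mL protein, made by dounce homogenisation in PBS pH 7.4 with 1 mM MgCl2, was treated with 10 μM compound for 30 min. After 3 min heating across 48°C-58°C, aliquots were pooled, adjusted to 0.5% NP-40 at 4°C and centrifuged at 21,000xg for 90 min. The supernatant was measured by TMTpro 16plex LC-MS/MS with channel sums equalised.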

[1] = compound: CCCS(=O)(=O)Nc1ccc(F)c(C(=O)c2c[nH]c3ncc(Cl)cc23)c1F
How it was run: as §1

barasertib = compound: CCN(CCCOc1ccc2c(Nc3cc(CC(=O)Nc4cccc(F)c4)[nH]n3)ncnc2c1)CCOP(=O)(O)O [barasertib]
How it was run: as §1

[2] = compound: CC[C@@H]1C(=O)N(C)c2cnc(Nc3ccc(C(=O)NC4CCN(C)CC4)cc3OC)nc2N1C1CCCC1
How it was run: as §1

volasertib = compound: CC[C@@H]1C(=O)N(C)c2cnc(Nc3ccc(C(=O)N[C@H]4CC[C@H](N5CCN(CC6CC6)CC5)CC4)cc3OC)nc2N1C(C)C [volasertib]
How it was run: as §1

[3] = compound: CCn1c(C(=O)N(C2CC2)C2CC2)cc2c3c(ncn3C)c(Nc3cc(C)n(C)n3)nc21
How it was run: as §1

[4] = compound: CCn1cc(-c2ccnc3[nH]c(-c4cccc(CN(C)C)c4)cc23)c(-c2ccc(NC(=O)N(C)C)cc2)n1
How it was run: as §1

[5] = compound: CN1CCC(CNc2ccc3ncc(-c4cccc(OC(F)(F)F)c4)n3n2)CC1
How it was run: as §1

saracatinib = compound: CN1CCN(CCOc2cc(OC3CCOCC3)c3c(Nc4c(Cl)ccc5c4OCO5)ncnc3c2)CC1 [saracatinib]
How it was run: as §1

sotrastaurin = compound: CN1CCN(c2nc(C3=C(c4c[nH]c5ccccc45)C(=O)NC3=O)c3ccccc3n2)CC1 [sotrastaurin]
How it was run: as §1

Measured: log2 fold change

RPAP2 (UniProt Q8IXW5)
inactive: vemurafenib 0.02 | [1] 0.013 | barasertib -0.035 | [2] 0.011 | volasertib 0.009 | [3] -0.069 | [4] -0.031 | [5] 0.01 | saracatinib -0.028 | sotrastaurin 0.05

RNASEL (UniProt Q05823)
inactive: vemurafenib -0.004 | [1] 0.053 | barasertib 0.077 | [2] -0.017 | volasertib -0.103 | [3] 0.012 | [4] -0.006 | [5] -0.025 | saracatinib -0.011 | sotrastaurin 0.024

RNF34 isoform 2 (UniProt Q969K3)
inactive: vemurafenib -0.06 | [1] 0.042 | barasertib 0.004 | [2] 0.04 | volasertib 0.161 | [3] 0.027 | [4] 0.081 | [5] 0.015 | saracatinib -0.004 | sotrastaurin 0.021

RPL35A (UniProt P18077)
inactive: vemurafenib -0.038 | [1] 0.019 | barasertib -0.032 | [2] -0.094 | volasertib -0.021 | [3] -0.011 | [4] -0.076 | [5] 0.046 | saracatinib -0.046 | sotrastaurin -0.003

RPAP3 (UniProt Q9H6T3)
inactive: vemurafenib 0 | [1] 0.011 | barasertib 0.009 | [2] -0.015 | volasertib -0.046 | [3] 0.009 | [4] -0.016 | [5] -0.06 | saracatinib 0.013 | sotrastaurin 0.008

RILP (UniProt Q96NA2)
inactive: vemurafenib -0.005 | [1] 0.036 | barasertib -0.006 | [2] 0 | volasertib 0 | [3] 0.054 | [4] -0.032 | [5] 0.044 | saracatinib 0.012 | sotrastaurin -0.025

RNASEH2B (UniProt Q5TBB1)
inactive: vemurafenib -0.008 | [1] 0.034 | barasertib -0.035 | [2] -0.056 | volasertib -0.044 | [3] -0.001 | [4] 0.026 | [5] -0.101 | saracatinib -0.022 | sotrastaurin 0.062

RIPK1 (UniProt Q13546)
inactive: vemurafenib -0.053 | [1] 0.027 | barasertib 0.01 | [2] -0.026 | volasertib -0.066 | [3] 0.027 | [4] -0.019 | [5] -0.013 | saracatinib 0.016 | sotrastaurin -0.045

RPL23A (UniProt P62750)
inactive: vemurafenib 0.009 | [1] -0.003 | barasertib -0.007 | [2] 0.03 | volasertib -0.001 | [3] -0.014 | [4] 0.241 | [5] -0.113 | saracatinib -0.009 | sotrastaurin 0.005

RHOT1 isoform 3 (UniProt Q8IXI2)
inactive: vemurafenib 0.053 | [1] 0.03 | barasertib 0.05 | [2] -0.031 | volasertib -0.035 | [3] -0.001 | [4] 0.024 | [5] -0.059 | saracatinib -0.053 | sotrastaurin -0.015

RPL18A (UniProt Q02543)
inactive: vemurafenib 0 | [1] 0.002 | barasertib -0.017 | [2] 0.009 | volasertib -0.013 | [3] -0.017 | [4] 0.22 | [5] -0.016 | saracatinib 0.019 | sotrastaurin -0.015

RNF31 (UniProt Q96EP0)
inactive: vemurafenib 0.02 | [1] 0.021 | barasertib 0.021 | [2] -0.001 | volasertib -0.104 | [3] 0.006 | [4] 0.001 | [5] -0.03 | saracatinib 0 | sotrastaurin 0.013

RPL31 (UniProt P62899)
inactive: vemurafenib 0.01 | [1] 0.004 | barasertib 0.004 | [2] 0.006 | volasertib -0.005 | [3] -0.013 | [4] -0.043 | [5] -0.005 | saracatinib 0.024 | sotrastaurin 0.014

RHOT2 (UniProt Q8IXI1)
inactive: vemurafenib 0.019 | [1] -0.006 | barasertib 0.072 | [2] -0.011 | volasertib -0.064 | [3] -0.022 | [4] -0.086 | [5] 0.047 | saracatinib -0.021 | sotrastaurin -0.003

ROR2 (UniProt Q01974)
inactive: vemurafenib 0.006 | [1] 0.096 | barasertib 0.008 | [2] -0.028 | volasertib -0.003 | [3] -0.019 | [4] 0.028 | [5] 0.007 | saracatinib -0.021 | sotrastaurin -0.078

RNF123 (UniProt Q5XPI4)
inactive: vemurafenib 0.034 | [1] 0.003 | barasertib 0.019 | [2] -0.009 | volasertib -0.048 | [3] 0.035 | [4] -0.045 | [5] 0.004 | saracatinib -0.006 | sotrastaurin 0.03

RPL24 (UniProt P83731)
inactive: vemurafenib -0.014 | [1] -0.021 | barasertib -0.047 | [2] 0.04 | volasertib 0 | [3] 0.007 | [4] 0.012 | [5] -0.025 | saracatinib 0.008 | sotrastaurin 0.017

RPL17 isoform 3 (UniProt P18621)
inactive: vemurafenib -0.026 | [1] 0.002 | barasertib -0.073 | [2] 0.044 | volasertib -0.022 | [3] -0.003 | [4] 0.037 | [5] -0.02 | saracatinib 0.005 | sotrastaurin -0.015

RPF2 (UniProt Q9H7B2)
inactive: vemurafenib 0.009 | [1] 0.029 | barasertib -0.067 | [2] -0.024 | volasertib -0.021 | [3] 0.022 | [4] 0.037 | [5] -0.217 | saracatinib -0.02 | sotrastaurin -0.009

RPL12 (UniProt P30050)
inactive: vemurafenib -0.007 | [1] -0.006 | barasertib -0.03 | [2] 0.005 | volasertib -0.009 | [3] -0.047 | [4] 0.058 | [5] -0.04 | saracatinib 0.021 | sotrastaurin -0.041

RNF181 (UniProt Q9P0P0)
inactive: vemurafenib -0.06 | [1] 0.025 | barasertib 0.179 | [2] -0.036 | volasertib 0.004 | [3] 0.018 | [4] -0.013 | [5] -0.035 | saracatinib -0.03 | sotrastaurin -0.02

RNF7 (UniProt Q9UBF6)
inactive: vemurafenib -0.02 | [1] 0.047 | barasertib 0.052 | [2] 0.093 | volasertib -0.007 | [3] -0.027 | [4] -0.049 | [5] 0.067 | saracatinib -0.053 | sotrastaurin -0.108

RIDA (UniProt P52758)
inactive: vemurafenib 0.023 | [1] 0.024 | barasertib 0.069 | [2] 0.057 | volasertib 0.023 | [3] 0.011 | [4] -0.018 | [5] -0.072 | saracatinib -0.01 | sotrastaurin 0.008

RPL29 (UniProt P47914)
inactive: vemurafenib -0.034 | [1] 0.031 | barasertib -0.019 | [2] 0.083 | volasertib -0.016 | [3] -0.034 | [4] 0.091 | [5] -0.051 | saracatinib -0.127 | sotrastaurin 0.039

RPL10 (UniProt P27635)
inactive: vemurafenib -0.074 | [1] 0.02 | barasertib -0.032 | [2] -0.065 | volasertib -0.005 | [3] 0.016 | [4] 0.146 | [5] -0.124 | saracatinib 0.006 | sotrastaurin 0.008

RIOK2 (UniProt Q9BVS4)
inactive: vemurafenib -0.074 | [1] 0.006 | barasertib -0.053 | [2] 0.016 | volasertib -0.026 | [3] -0.03 | [4] -0.115 | [5] 0.066 | saracatinib -0.023 | sotrastaurin 0.04

RMI1 (UniProt Q9H9A7)
inactive: vemurafenib 0.025 | [1] 0.043 | barasertib -0.061 | [2] -0.173 | volasertib -0.108 | [3] -0.131 | [4] 0.013 | [5] -0.02 | saracatinib -0.054 | sotrastaurin 0.003

Looked up one by one from the entries so far, two records:
RPL31 (UniProt P62899)
inactive: vemurafenib 0.01 | [1] 0.004 | barasertib 0.004 | [2] 0.006 | volasertib -0.005 | [3] -0.013 | [4] -0.043 | [5] -0.005 | saracatinib 0.024 | sotrastaurin 0.014

RPAP2 (UniProt Q8IXW5)
inactive: vemurafenib 0.02 | [1] 0.013 | barasertib -0.035 | [2] 0.011 | volasertib 0.009 | [3] -0.069 | [4] -0.031 | [5] 0.01 | saracatinib -0.028 | sotrastaurin 0.05

Continued:

RHOC (UniProt P08134)
inactive: vemurafenib -0.024 | [1] 0.015 | barasertib -0.018 | [2] -0.059 | volasertib -0.02 | [3] 0.072 | [4] -0.133 | [5] 0.095 | saracatinib 0 | sotrastaurin -0.024

RMND5A (UniProt Q9H871)
inactive: vemurafenib -0.036 | [1] 0.02 | barasertib 0.05 | [2] 0.013 | volasertib -0.003 | [3] -0.007 | [4] -0.11 | [5] 0.059 | saracatinib 0 | sotrastaurin 0.034

RNMT isoform 2 (UniProt O43148)
inactive: vemurafenib 0.009 | [1] -0.007 | barasertib -0.017 | [2] -0.006 | volasertib 0.007 | [3] 0.05 | [4] 0.025 | [5] -0.008 | saracatinib 0.005 | sotrastaurin -0.012
